PubChem BioAssay AID504744 – Drosophila RNAi Screening Center – 2011
Screen: 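Find genes whose loss alters insulin-driven dAkt phosphorylation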 (primary screen). Cells: Drosophila Kc167 cells. Knock-down reagent: long dsRNA against Drosophila genes, 250 ng dsRNA per well of a 384-well plate. Timing: 3 days of knock-down, then overnight serum-free starvation before stimulation. Conditions: bovine insulin at 387 nM for 10 minutes after 12 h without serum. Read-out: 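Per-well phospho-dAkt level from an in-cell fluorescent antibody stain, divided by a DNA-dye signal; log2 residuals turned into z-scores that take cell number into account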. Call rule: 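Hit in the insulin screen when the two-replicate mean z-score is more extreme than plus or minus 2.5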.
The deposit covers about 23,000 reagents; below is a random part of those with a known target gene and a result. Of all reagents, 98 (0.43%) are marked active. 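Only hit calls are given; the phospho-dAkt signals, z-scores and hit direction were not deposited.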 A plus sign joins genes that one reagent is predicted to hit. No sequences are given here.

predicted target,DRSC id,Outcome
Dic4,DRSC10317,inactive
klu (klumpfuss),DRSC11357,inactive
mRpL52 (mitochondrial ribosomal protein L52),DRSC06585,inactive
GlcAT-I (Glucuronyltransferase I),DRSC17307,inactive
CG14949,DRSC08408,inactive
CG8323,DRSC07149,inactive
Drip,DRSC07405,inactive
CG10395,DRSC04840,inactive
CG42570,DRSC09391,inactive
CG17329,DRSC01926,inactive
Bub1 (Bub1 kinase),DRSC02357,inactive
TH1,DRSC20289,inactive
CG16903,DRSC18561,inactive
CheB74a (Chemosensory protein B 74a),DRSC09503,inactive
CAH15 (Carbonic anhydrase 15),DRSC04534,inactive
Ir100a (Ionotropic receptor 100a),DRSC14329,inactive
CG32213 + CG12519 + 825-Oak + 1 more,DRSC09615,inactive
Ir51a (Ionotropic receptor 51a),DRSC06256,inactive
CG13724,DRSC10053,inactive
CG43689,DRSC18383,inactive
CG43689,DRSC22467,inactive
CG9130 + CG9133,DRSC08624,inactive
CG9130 + CG9133,DRSC08625,inactive
CG9130 + CG9133,DRSC22010,inactive
Dtwd2 (DTW domain containing 2),DRSC12501,inactive
CG7326,DRSC20037,inactive
alpha-Man-IIb (alpha-Mannosidase class II b),DRSC16898,inactive
"Lamtor1 (Late endosomal/lysosomal adaptor, MAPK and MTOR activator 1)",DRSC10183,inactive
spi (spitz),DRSC03618,inactive
CG13895,DRSC08365,inactive
CG9928,DRSC03274,inactive
Nph (Nucleophosmin),DRSC16342,inactive
CG9084,DRSC07335,inactive
CG11089 + CG31381,DRSC13690,inactive
CG11089 + CG31381,DRSC14290,inactive
CG7744,DRSC07036,inactive
Egfr (Epidermal growth factor receptor),DRSC03871,inactive
Egfr (Epidermal growth factor receptor),DRSC04613,inactive
Torsin,DRSC18570,inactive
pre-mod(mdg4)-Z + mod(mdg4) + pre-mod(mdg4)-T,DRSC13477,inactive
pre-mod(mdg4)-Z + mod(mdg4) + pre-mod(mdg4)-T,DRSC17001,inactive
robl37BC,DRSC02472,inactive
stac (staccato),DRSC13693,inactive
stac (staccato),DRSC14392,inactive
stac (staccato),DRSC22197,inactive
Nelf-A (Negative elongation factor A),DRSC15903,inactive
mRpL10 (mitochondrial ribosomal protein L10),DRSC00312,inactive
ida (imaginal discs arrested),DRSC08163,inactive
Ntmt (N-terminal methyltransferase),DRSC06624,inactive
CG14125,DRSC10129,inactive
CG14480,DRSC06452,inactive
CG10428,DRSC02054,inactive
CG13325,DRSC06362,inactive
Dark (Death-associated APAF1-related killer),DRSC05922,inactive
RNaseX25 (Ribonuclease X25),DRSC11259,inactive
CkIIalpha-i3 (CKII-alpha subunit interactor-3),DRSC08651,inactive
CG34370,DRSC03913,inactive
CG34370,DRSC04142,inactive
CG34370,DRSC04143,inactive
CG34370,DRSC04144,inactive
ACXB (Adenylyl cyclase X B),DRSC00845,inactive
Con (Connectin),DRSC08652,inactive
APC4 (Anaphase Promoting Complex subunit 4),DRSC18360,inactive
Ercc1,DRSC07424,inactive
CG34057,DRSC08375,inactive
CG12237,DRSC19449,inactive
CG12237,DRSC22256,inactive
Clamp (Chromatin-linked adaptor for MSL proteins),DRSC03718,inactive
Clamp (Chromatin-linked adaptor for MSL proteins),DRSC21682,inactive
gammaTub37C (gamma-Tubulin at 37C),DRSC03535,inactive
CG7272,DRSC10795,inactive
Rpn13R (Regulatory particle non-ATPase 13-related),DRSC18404,inactive
orb2,DRSC10540,inactive
orb2,DRSC10541,inactive
orb2,DRSC10542,inactive
CG12662,DRSC17865,inactive
RYBP (Ring and YY1 Binding Protein),DRSC04117,inactive
CG33140,DRSC06030,inactive
cype (cyclope),DRSC02356,inactive
Act79B (Actin 79B),DRSC11604,inactive
cdi (center divider),DRSC16922,inactive
Tsf1 (Transferrin 1),DRSC20296,inactive
Alp7 (Alkaline phosphatase 7),DRSC04355,inactive
Ir75a (Ionotropic receptor 75a),DRSC10188,inactive
wdn (wings down),DRSC17095,inactive
tay (tay bridge),DRSC20142,inactive
Tspo (Translocator protein),DRSC00533,inactive
alphaCOP (Coat Protein (coatomer) alpha),DRSC08706,inactive
Ndg (Nidogen),DRSC06223,inactive
tilB (touch insensitive larva B),DRSC20634,inactive
dod (dodo),DRSC20577,inactive
PAPLA1 (Phosphatidic Acid Phospholipase A1),DRSC03095,inactive
PAPLA1 (Phosphatidic Acid Phospholipase A1),DRSC03096,inactive
Cht5 (Chitinase 5),DRSC16470,inactive
Syx17 (Syntaxin 17),DRSC08591,inactive
CrebB (Cyclic-AMP response element binding protein B),DRSC20232,inactive
CG14495,DRSC06466,inactive

Records listed so far whose gene name begins with R or r (4):
predicted target,DRSC id,Outcome
robl37BC,DRSC02472,inactive
RNaseX25 (Ribonuclease X25),DRSC11259,inactive
Rpn13R (Regulatory particle non-ATPase 13-related),DRSC18404,inactive
RYBP (Ring and YY1 Binding Protein),DRSC04117,inactive

The list goes on.
predicted target,DRSC id,Outcome
Tsp42Ef (Tetraspanin 42Ef),DRSC06191,inactive
Sbat (Sabbat),DRSC00160,inactive
CG1090,DRSC12150,inactive
CG1090,DRSC21604,inactive
Uro (Urate oxidase),DRSC03469,inactive
CG3565,DRSC04389,inactive
CG14182,DRSC10181,inactive
Sprn (Spermitin),DRSC10132,inactive
Dyb (Dystrobrevin),DRSC07208,inactive
Dyb (Dystrobrevin),DRSC22862,inactive
"Lamtor4 (Late endosomal/lysosomal adaptor, MAPK and MTOR activator 4)",DRSC08436,inactive
CG10041,DRSC14179,inactive
CG3699,DRSC18171,inactive
CG3699,DRSC18642,inactive
Sas10 (Something about silencing 10),DRSC18355,inactive
ord (orientation disruptor),DRSC04706,inactive
Vsp37A (Vacuolar protein sorting 37A),DRSC18794,inactive
Ect3 (Ectoderm-expressed 3),DRSC15462,inactive
FASN1 (Fatty acid synthase 1),DRSC00268,inactive
Lcp65Ac,DRSC11210,inactive
wupA (wings up A),DRSC20385,inactive
wupA (wings up A),DRSC22547,inactive
CG33060,DRSC09939,inactive
CCT2 (Chaperonin containing TCP1 subunit 2),DRSC18415,inactive
CG6878,DRSC10737,inactive
synr (sayonara),DRSC02369,inactive
CG34199,DRSC05867,inactive
Ugt302E1 (UDP-glycosyltransferase family 302 member E1),DRSC15635,inactive
karr,DRSC20681,inactive
CG42527 (retired record) + Hr4,DRSC18495,inactive
CG42527 (retired record) + Hr4,DRSC22269,inactive
CG42527 (retired record) + Hr4,DRSC22677,inactive
CG31997,DRSC17105,inactive
His4r (Histone H4 replacement),DRSC16703,inactive
CG15099,DRSC06528,inactive
RpS6 (Ribosomal protein S6),DRSC18712,inactive
CG12617,DRSC02176,inactive
CG7564,DRSC10880,inactive
CG12061,DRSC20715,inactive
Nup75 (Nucleoporin 75kD),DRSC06947,inactive
CheB38b (Chemosensory protein B 38b),DRSC22874,inactive
psd (palisade),DRSC03131,inactive
Gs2 (Glutamine synthetase 2),DRSC20250,inactive
CG17931 + CG42446,DRSC15293,inactive
CG5916,DRSC15917,inactive
Atg16 (Autophagy-related 16),DRSC15052,inactive
Atg16 (Autophagy-related 16),DRSC15300,inactive
Atg16 (Autophagy-related 16),DRSC15375,inactive
Argl + CG9515,DRSC03243,inactive
Argl + CG9515,DRSC03245,inactive
CG9331,DRSC03206,inactive
flip (flippy),DRSC12326,inactive
ebi,DRSC00816,inactive
Sidpn (similar to Deadpan),DRSC02056,inactive
Gyg (Glycogenin),DRSC03850,inactive
Gyg (Glycogenin),DRSC04556,inactive
CanA-14F (Calcineurin A at 14F),DRSC20211,inactive
rt (rotated abdomen),DRSC11391,inactive
CG32762,DRSC18298,inactive
CG4914,DRSC10458,inactive
